According to article PMC12279197:
Results are given in words; binding and its absence hold for the method and conditions named. Binding seen in cells or lysates may run through a third protein. Some results given as binding are weak or reduced against the parent protein; the word gives no strength. Values belong to the substance of their own block, whether it stands above or below them.

The chains behind the UniProt entries cited, without tags or fusion partners.
UniProt P62136: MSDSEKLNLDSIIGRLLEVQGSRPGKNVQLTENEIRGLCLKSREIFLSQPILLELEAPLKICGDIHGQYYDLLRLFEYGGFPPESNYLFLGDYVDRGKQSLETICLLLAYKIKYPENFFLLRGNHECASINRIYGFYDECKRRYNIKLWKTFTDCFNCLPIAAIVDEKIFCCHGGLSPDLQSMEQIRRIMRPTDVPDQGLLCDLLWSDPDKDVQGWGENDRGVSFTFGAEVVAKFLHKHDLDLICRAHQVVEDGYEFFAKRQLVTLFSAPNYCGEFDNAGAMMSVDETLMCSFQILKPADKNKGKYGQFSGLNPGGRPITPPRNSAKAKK
UniProt Q14145: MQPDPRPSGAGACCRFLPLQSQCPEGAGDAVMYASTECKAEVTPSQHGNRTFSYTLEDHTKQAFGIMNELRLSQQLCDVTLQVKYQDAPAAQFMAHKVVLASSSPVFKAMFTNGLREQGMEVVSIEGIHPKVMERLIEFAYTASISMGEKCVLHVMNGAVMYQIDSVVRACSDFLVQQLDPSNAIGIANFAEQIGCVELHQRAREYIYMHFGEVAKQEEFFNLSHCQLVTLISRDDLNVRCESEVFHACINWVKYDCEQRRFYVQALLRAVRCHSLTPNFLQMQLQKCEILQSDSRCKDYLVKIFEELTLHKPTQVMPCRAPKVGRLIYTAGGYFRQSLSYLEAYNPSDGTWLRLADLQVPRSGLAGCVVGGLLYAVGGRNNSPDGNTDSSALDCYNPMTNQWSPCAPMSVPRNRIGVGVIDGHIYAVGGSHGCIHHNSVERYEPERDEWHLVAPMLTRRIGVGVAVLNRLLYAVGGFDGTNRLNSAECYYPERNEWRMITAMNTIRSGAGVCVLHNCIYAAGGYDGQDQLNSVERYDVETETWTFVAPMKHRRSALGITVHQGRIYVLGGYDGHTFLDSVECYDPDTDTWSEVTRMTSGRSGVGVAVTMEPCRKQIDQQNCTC

Key:
[1] = target: GST‐HA‐PP1A (UniProt P62136); assay: pull-down; GST-HA fusion and FLAG-tagged partner co-transfected in HEK293 cells, glutathione beads, Western blot
[2] = target: GST‐HA‐Keap1 (UniProt Q14145); assay: as above
[3] = target: serine/threonine‐specific protein phosphatase (PP1A) (human (in Huh7 cells; endogenous or transfected not stated)) (UniProt P62136); assay: co-IP; cell lysates with antibodies overnight at 4°C, protein A/G magnetic beads 6 h at 4°C, washed with PBST, Western blot; Keap1-Nrf2 co-IP with or without overexpressed PP1A or PP1A phosphatase-site mutant

binding [1]: binds
Substance: FLAG‐Keap1 (from UniProt Q14145 1-624)

binding [2]: binds
Substance: FLAG‐PP1A (from UniProt P62136 1-330) (enzyme)

binding [3]: binds
Substance: Kelch‐like ECH‐associated protein (Keap1) (from UniProt Q14145 1-624)
